Patent US8653126B2, “Imidazole derivative” (Daiichi Sankyo Company, Limited, priority 2010, dated 2014)
Some results were stated once for a whole list of compounds, not compound by compound.

Test system: lymphocytes in peripheral blood
Test: Fluctuation in number of lymphocytes in peripheral blood in rats
Type: in vivo, rat
Details: LEW/Crj rats, single oral dose

2-Methoxy benzoic acid (2-acetyl-1H-imidazol-4-yl)methylester; 2-Methoxy benzoic acid (2-acetyl-3H-imidazol-4-yl)methylester; 2-Methoxy benzoic acid [2-acetyl-1-(2-methoxybenzoyl)-1H-imidazol-4-yl]methylester; 2-Methoxy benzoic acid [2-acetyl-3-(2-methoxybenzoyl)-3H-imidazol-4-yl]methylester [Example 62]
number of lymphocytes in peripheral blood: reduced the number of lymphocytes in peripheral blood
